These are yes or no findings as the source states them, for the method shown. In cells and extracts the contact can be indirect. Some binding calls cover weakened binding; strength is not graded here. For some assays here: Sequences can lack the tags named with a protein.

Here are results for 2 molecules from paper doi:10.1101/830380.

Test [1] addresses T1, Asc-Myc (wild-type mouse apoptosis-associated speck-like protein containing a Card), expressed in HEK293 cells (mouse) (UniProt Q9EPB4).
T1 sequence: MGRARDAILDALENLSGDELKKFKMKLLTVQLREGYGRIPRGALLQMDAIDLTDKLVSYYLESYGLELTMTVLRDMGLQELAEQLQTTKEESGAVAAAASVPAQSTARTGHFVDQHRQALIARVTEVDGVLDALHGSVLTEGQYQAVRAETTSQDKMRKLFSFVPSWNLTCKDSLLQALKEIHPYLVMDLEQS
As to the kind of experiment: co-IP.

Test [2] has as its target T2, endogenous Asc of J774A.1 cells (mouse (endogenous in J774A.1)) (UniProt Q9EPB4).
T2 sequence: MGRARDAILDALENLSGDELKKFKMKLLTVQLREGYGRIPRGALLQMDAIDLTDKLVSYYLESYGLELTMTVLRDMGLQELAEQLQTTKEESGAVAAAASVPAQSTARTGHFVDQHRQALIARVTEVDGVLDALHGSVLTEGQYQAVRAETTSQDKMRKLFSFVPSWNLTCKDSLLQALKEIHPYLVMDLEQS
Kind of test: co-IP.

B1: Mul1-FLAG (wild-type mouse mitochondrial E3 ubiquitin protein ligase), expressed in HEK293 cells (enzyme, UniProt Q8VCM5 1-352)
chain: MESGSRPSLGQVILLGTSSMVTAVLYSIYRQKAQVAQELKGAKKIHLGEDLKGILSEAPGKCVPYAVIEGAVRSVKETLNSQFVENCKGVIQRLSLQEHKMVWNRTTHLWNDYSKIIHQRTNTVPFDLVPHEDGVAVSVRVLKPLDSVDLGLETVYEKFHPSVQSFTDAIGHYISGERPKGIQETEEMLKVGATLTGIGELVLDNNAVRLQPPKQGMQYYLSSQDFDSLLHRQESSVRLWKILVLVFGFATCATLFFILRKQYLHRQERLRQQQLQEEFLEHEAQLLSQASPEDRESLKSACVVCLSNFKSCVFLECGHVCSCRQCYLALPEPKRCPICRREITRVIPLYNS
In the case of B1, the binding entry in test [1] is “binds”.

B2: endogenous Mul1 of J774A.1 cells (enzyme, UniProt Q8VCM5 1-352)
chain: MESGSRPSLGQVILLGTSSMVTAVLYSIYRQKAQVAQELKGAKKIHLGEDLKGILSEAPGKCVPYAVIEGAVRSVKETLNSQFVENCKGVIQRLSLQEHKMVWNRTTHLWNDYSKIIHQRTNTVPFDLVPHEDGVAVSVRVLKPLDSVDLGLETVYEKFHPSVQSFTDAIGHYISGERPKGIQETEEMLKVGATLTGIGELVLDNNAVRLQPPKQGMQYYLSSQDFDSLLHRQESSVRLWKILVLVFGFATCATLFFILRKQYLHRQERLRQQQLQEEFLEHEAQLLSQASPEDRESLKSACVVCLSNFKSCVFLECGHVCSCRQCYLALPEPKRCPICRREITRVIPLYNS
Regarding B2, the binding entry in test [2] was “binds”.
